Measurements: PMC12724251
No constants are given. Whether binding was seen depends on the method and setting. Binding seen in cells or lysates may run through a third protein. Some results given as binding are weak or reduced against the parent protein; the word gives no strength.

Protein sequences, listed by entry. Tags and fused reporters are not part of them.
UniProt P11142: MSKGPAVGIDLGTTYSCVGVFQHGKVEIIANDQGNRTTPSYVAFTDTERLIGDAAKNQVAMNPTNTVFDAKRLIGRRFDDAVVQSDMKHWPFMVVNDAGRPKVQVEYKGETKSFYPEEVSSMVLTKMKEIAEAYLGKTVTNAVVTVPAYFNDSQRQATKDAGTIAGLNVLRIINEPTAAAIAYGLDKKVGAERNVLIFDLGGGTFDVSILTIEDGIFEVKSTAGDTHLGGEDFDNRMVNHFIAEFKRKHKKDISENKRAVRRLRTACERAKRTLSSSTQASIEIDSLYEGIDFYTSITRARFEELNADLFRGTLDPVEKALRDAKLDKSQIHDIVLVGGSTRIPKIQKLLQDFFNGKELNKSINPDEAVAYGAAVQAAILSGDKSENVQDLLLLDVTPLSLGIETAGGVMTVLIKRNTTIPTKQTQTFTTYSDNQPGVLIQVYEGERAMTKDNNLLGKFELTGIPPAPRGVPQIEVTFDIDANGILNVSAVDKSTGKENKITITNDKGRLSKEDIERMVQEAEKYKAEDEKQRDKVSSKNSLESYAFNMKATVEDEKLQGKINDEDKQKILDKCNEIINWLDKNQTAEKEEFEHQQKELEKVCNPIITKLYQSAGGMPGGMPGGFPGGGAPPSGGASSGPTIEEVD
UniProt P25963: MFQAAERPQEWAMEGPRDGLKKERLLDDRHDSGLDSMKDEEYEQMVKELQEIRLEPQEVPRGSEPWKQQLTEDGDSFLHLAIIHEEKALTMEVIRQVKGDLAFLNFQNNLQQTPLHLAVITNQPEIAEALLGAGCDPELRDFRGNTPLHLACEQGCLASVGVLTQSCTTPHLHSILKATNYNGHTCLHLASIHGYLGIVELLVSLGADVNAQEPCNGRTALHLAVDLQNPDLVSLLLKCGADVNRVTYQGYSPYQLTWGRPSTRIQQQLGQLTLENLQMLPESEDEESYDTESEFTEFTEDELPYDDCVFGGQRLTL

Experiments:
[1] = target: T1, CCT2 (subunit of TRiC), A549 cells (human (endogenous in A549)) (UniProt P78371); assay: co-IP; A549 cell lysates, immunoprecipitated with CCT2 antibody, Western blot; cells ARV-infected (MOI 10, 24 h), with or without CK2 or Hsc70 shRNA (Fig. 9A)
T1 sequence: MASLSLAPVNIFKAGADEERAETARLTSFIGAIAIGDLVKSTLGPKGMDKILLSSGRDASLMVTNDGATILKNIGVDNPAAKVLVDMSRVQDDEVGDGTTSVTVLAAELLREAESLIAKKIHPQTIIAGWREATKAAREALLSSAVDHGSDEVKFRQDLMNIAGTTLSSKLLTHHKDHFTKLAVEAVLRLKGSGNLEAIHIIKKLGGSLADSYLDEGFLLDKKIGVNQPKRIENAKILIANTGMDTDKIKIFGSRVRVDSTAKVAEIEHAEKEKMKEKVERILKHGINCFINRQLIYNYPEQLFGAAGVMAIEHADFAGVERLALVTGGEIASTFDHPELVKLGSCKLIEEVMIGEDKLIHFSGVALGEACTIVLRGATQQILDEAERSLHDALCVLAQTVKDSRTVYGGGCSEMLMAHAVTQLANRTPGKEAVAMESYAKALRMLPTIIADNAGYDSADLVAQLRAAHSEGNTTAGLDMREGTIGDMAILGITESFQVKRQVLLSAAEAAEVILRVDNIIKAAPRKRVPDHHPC

[2] = target: Hsc70, A549 cells (human (endogenous in A549)) (UniProt P11142); assay: co-IP; A549 cell lysates, immunoprecipitated with Hsc70 antibody, Western blot; cells ARV-infected (MOI 10, 24 h) (Fig. 9B)

binding [1]: binds
binding [2]: binds
Substance: IκBα, A549 cells (from UniProt P25963 1-317)
